Results as given in publication PMC3558359.
Results are given in words; binding and its absence hold for the method and conditions named. Binding seen in cells or lysates may run through a third protein. Some binding calls cover weakened binding; strength is not graded here.

The chains behind the UniProt entries cited, without tags or fusion partners. Where a name states a change or a piece, a line headed by the entry shows the natural chain unless it says otherwise.
UniProt P05556: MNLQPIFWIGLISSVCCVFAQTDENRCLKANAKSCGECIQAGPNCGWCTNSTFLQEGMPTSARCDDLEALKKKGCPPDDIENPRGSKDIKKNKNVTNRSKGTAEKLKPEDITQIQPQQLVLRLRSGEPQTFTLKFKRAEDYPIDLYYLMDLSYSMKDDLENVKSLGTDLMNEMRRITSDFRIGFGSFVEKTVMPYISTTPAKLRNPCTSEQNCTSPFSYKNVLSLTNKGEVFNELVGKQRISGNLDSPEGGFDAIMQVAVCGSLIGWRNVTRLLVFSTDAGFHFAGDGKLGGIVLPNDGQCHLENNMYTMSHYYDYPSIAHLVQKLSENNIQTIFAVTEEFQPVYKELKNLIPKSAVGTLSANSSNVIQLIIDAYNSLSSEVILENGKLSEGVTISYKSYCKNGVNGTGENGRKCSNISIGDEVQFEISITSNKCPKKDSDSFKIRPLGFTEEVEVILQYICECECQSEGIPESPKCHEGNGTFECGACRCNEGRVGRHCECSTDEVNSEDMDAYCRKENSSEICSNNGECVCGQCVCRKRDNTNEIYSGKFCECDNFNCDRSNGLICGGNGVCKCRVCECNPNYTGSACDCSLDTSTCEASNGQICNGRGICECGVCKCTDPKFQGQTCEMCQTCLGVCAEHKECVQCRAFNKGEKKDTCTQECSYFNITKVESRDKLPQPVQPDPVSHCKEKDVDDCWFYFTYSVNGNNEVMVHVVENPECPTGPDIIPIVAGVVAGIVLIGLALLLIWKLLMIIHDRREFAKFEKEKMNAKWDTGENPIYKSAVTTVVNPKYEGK

Molecular target: Phosphatase of regenerating liver-3 (PRL-3), endogenous (human (endogenous in BGC823 and SW480)) (UniProt O75365)
Experiment: co-IP; lysates (500 μg) of BGC823 or SW480 cells precipitated with 1 μg PRL-3 monoclonal antibody or pre-immune mouse IgG on protein G-Sepharose, blot for integrin β1; lysis buffer 50 mM HEPES pH 8.0, 150 mM NaCl, 1% Triton X-100, 4°C; also BGC823 cells after integrin α1 siRNA or control siRNA (more integrin β1 precipitated upon integrin α1 silencing)

binding: binds
Substance: integrin β1, endogenous (from UniProt P05556 21-798) (receptor)
